We go through three substances from paper PMC9450150.

Protein sequences, listed by entry. Tags and fused reporters are not part of them. Lines headed by an entry give the natural chain unless they say otherwise; changes in a name come on top. Chains listed by the source or under a name are the forms on record and can include a tag or linker.
UniProt Q9HC97: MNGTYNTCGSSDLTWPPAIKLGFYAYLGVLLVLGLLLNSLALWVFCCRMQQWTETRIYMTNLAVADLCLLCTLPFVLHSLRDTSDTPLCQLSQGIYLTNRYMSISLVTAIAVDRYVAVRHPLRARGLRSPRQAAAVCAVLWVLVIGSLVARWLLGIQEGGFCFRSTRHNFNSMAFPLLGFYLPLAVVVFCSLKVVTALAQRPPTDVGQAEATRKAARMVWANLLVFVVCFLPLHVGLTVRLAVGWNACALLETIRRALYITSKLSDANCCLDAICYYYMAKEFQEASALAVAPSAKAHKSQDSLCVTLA
N-terminally FLAG-tagged GPR35 long (Q9HC97, form named): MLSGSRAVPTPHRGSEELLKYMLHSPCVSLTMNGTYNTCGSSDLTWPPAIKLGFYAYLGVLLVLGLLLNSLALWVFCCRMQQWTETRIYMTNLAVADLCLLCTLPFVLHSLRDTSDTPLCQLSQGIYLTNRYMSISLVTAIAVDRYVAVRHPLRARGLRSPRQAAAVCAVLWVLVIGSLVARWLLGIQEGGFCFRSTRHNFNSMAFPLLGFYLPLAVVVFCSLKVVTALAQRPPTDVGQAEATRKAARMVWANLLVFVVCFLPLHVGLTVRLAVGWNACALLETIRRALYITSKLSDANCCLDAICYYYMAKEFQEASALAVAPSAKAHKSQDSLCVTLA
GPR35 long Cys27Ser (Q9HC97, form named): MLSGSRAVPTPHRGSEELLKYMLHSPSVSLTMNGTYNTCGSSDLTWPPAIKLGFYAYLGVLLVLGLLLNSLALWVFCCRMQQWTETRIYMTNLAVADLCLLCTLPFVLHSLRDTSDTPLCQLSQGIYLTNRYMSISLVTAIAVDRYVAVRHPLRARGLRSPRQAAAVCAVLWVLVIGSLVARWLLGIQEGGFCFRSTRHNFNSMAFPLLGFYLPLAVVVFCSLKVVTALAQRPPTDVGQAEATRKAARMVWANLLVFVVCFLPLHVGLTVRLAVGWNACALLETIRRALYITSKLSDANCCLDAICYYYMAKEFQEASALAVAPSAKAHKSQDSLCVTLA
UniProt P49407: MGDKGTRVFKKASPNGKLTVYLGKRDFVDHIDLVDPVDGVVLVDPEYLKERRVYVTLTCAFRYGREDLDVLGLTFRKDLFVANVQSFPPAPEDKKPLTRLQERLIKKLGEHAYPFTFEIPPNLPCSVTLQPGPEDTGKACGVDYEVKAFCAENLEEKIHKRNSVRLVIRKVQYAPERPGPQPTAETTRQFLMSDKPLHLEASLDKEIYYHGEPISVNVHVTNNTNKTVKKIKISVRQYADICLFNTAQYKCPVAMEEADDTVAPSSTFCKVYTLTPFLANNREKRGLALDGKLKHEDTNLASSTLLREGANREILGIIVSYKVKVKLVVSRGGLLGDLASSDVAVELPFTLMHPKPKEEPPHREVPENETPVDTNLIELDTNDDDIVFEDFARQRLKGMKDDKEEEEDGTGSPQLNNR

Results are given in words; binding and its absence hold for the method and conditions named. In cells and extracts the contact can be indirect. Some binding calls cover weakened binding; strength is not graded here.

Experiment [1] has as its target C-terminally Nluc-tagged GPR35 long (human) (UniProt Q9HC97). Description: FRET or BRET; intermolecular BRET in living HEK293A cells between C-terminally Nluc-tagged GPR35 and HaloTag-β-arrestin1/2 labelled with NanoBRET 618; stimulation with kynurenic acid; HBSS, 37 °C.
The target of experiment [2] is C-terminally Nluc-tagged GPR35 short (human) (UniProt Q9HC97). Described as above.
Experiment [3] has as its target C-terminally Nluc-tagged GPR35 long (human) (UniProt Q9HC97). Description: FRET or BRET; intermolecular BRET in living HEK293A cells between C-terminally Nluc-tagged GPCR and HaloTag-β-arrestin1/2 labelled with NanoBRET 618; stimulation with pamoic acid or zaprinast (GPR35) or isoprenaline (β2AR); HBSS, 37 °C. In general terms: Bioluminescence resonance energy transfer reports proximity on the nanometre scale.

The target in experiment [4] is C-terminally Nluc-tagged GPR35 short (human) (UniProt Q9HC97). Described as above.
Experiment [5] addresses GPR35 long Cys27Ser (human) (UniProt Q9HC97). The experiment in a line: FRET or BRET; β-arrestin2 recruitment to unlabeled GPR35 constructs in living HEK293A cells: Nluc-β-arrestin2 and membrane-anchored HaloTag (bystander BRET); stimulation with pamoic acid; HBSS, 37 °C.
Experiment [6] deals with N-terminally FLAG-tagged GPR35 long (human) (UniProt Q9HC97). Described as above.
Experiment [7] has as its target N-terminally FLAG-tagged GPR35 short (human) (UniProt Q9HC97). The description is as above.

With “HaloTag-β-arrestin1 (from UniProt P49407 1-418)”, the binding entry is on record as “no binding (condition: with kynurenic acid as the agonist)” in experiment [1], “no binding (condition: with kynurenic acid as the agonist)” in experiment [2], “binds” in experiment [3] and “binds” in experiment [4].

Regarding “HaloTag-β-arrestin2 (from UniProt P32121 1-409)”, the binding result is given as “no binding (condition: with kynurenic acid as the agonist)” in experiment [1], “no binding (condition: with kynurenic acid as the agonist)” in experiment [2], “binds” in experiment [3] and “binds” in experiment [4].

With “Nluc-β-arrestin2 (from UniProt P32121 1-409)”, the binding result in experiment [5], in experiment [6] and in experiment [7] was “binds” in each case.
